Consider 1 molecule from publication PMC7054785.

Results are given in words; binding and its absence hold for the method and conditions named. Binding seen in cells or lysates may run through a third protein. Some binding calls cover weakened binding; strength is not graded here.

In the assay the target is Bcl-2 (human (endogenous in A549)), P10415. As to the kind of experiment: co-IP; immunoprecipitation from A549 cells exposed to LPS; precipitating antibody and conditions not stated. The following applies: remark: other sources report otherwise.

B1: Bad, Q92934 1-168 (protein)
chain: MFQIPEFEPSEQEDSSSAERGLGPSPAGDGPSGSGKHHRQAPGLLWDASHQQEQPTSSSHHGGAGAVEIRSRHSSYPAGTEDDEGMGEEPSPFRGRSRSAPPNLWAAQRYGRELRRMSDEFVDSFKKGLPRPKSAGTATQMRQSSSWTRVFQSWWDRNLGRGSSAPSQ
Turning to B1, the binding result is given as “binds”.
